A short description of the assay: qHTS Assay for Lipid Storage Modulators in Drosophila S3 Cells.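 As to cell number change: cells counted by Cell Tracker Red CMTPX staining in the red channel.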 To be noted: BODIPY lipid droplet fluorescence, 18-24 h; for cell number change: measured here: cell count max response, cells fed with added oleic acid. In outline: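 Drosophila S3 cells got compounds at several concentrations plus oleic acid (400 uM solution). Laser-scanning cytometry with 488 nm excitation read lipid droplets at 500-530 nm and cells at 575-640 nm. Percent activity was relative to 20 uM Triacsin C.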

The mark [1] stands for this setting: measured here: cell number channel AC50, cells fed with added oleic acid.
Where [2] appears, read: measured here: lipid fluorescence (Fed channel) AC50, cells fed with added oleic acid.

The list shows a part of the results. The main result of the screen is listed elsewhere. These columns were measured beside it and carry no call. Most of these compounds were active or inconclusive in the main read-out, so they are no random draw. The note in brackets gives the kind of curve behind each potency; many fits are weak.

Turning to `CCOC(=O)c1sc(=NC(=O)c2cccs2)n(C)c1C`, the cell number change was found to be 1.44%.

Broadly, the AC50 is the midpoint of the concentration-response curve, whichever way the signal moves. A high value points to weaker potency. In the case of `CN(C(=O)c1cccn(Cc2ccccc2)c1=O)c1ccccc1`, the cell number change is -16.3%. Besides, the AC50 under setting [1] was 2.59 µM [rising, single point]. Also, under setting [2], the AC50 was 0.58 µM [rising, partial curve, poor fit].

Consider `COc1ccc(CCNc2ccc(S(=O)(=O)N3CCN(C)CC3)cc2[N+](=O)[O-])cc1`, for which, under setting [1], the AC50 is 6.51 µM [rising, single point].

Take `CC(C)(C)n1nc2c(c1NC(=O)c1ccco1)CS(=O)C2` (stereo not given): the AC50 under setting [2] is 29.1 µM [falling, partial curve].

With `O=C(Nc1nc2cc3c(cc2s1)OCCO3)c1cccc(S(=O)(=O)N2CCOCC2)c1`, the cell number change is -16.5%.

As to `CCOC(=O)/C(C#N)=C\C1=C(N2CCOCC2)CC(C)(C)OC1`, the cell number change is -36.5%. Besides, the AC50 under setting [1] is 18.4 µM [falling, single point].

Turning to `CCCCNC(=S)Nc1ccc([N+](=O)[O-])cc1`, the cell number change is -62.6%. Under setting [1], the AC50 is 32.6 µM [falling, single point]. The AC50 under setting [2] is 29.1 µM [falling, single point].

For `S=c1[nH]nc(COc2ccccc2)n1/N=C/c1ccccc1Br`, the cell number change is -34.7%. Further, under setting [1], the AC50 is 20.6 µM [falling, partial curve, poor fit].

Turning to `Cc1cc(C)c2cc(CN(CCO)C(c3nnnn3Cc3ccc(F)cc3)C(C)C)c(=O)[nH]c2c1` (stereo not given), the cell number change was -23.5%. Also, the half-maximal activity concentration (AC50) under setting [2] was 4.11 µM [rising, partial curve].

With `Cc1ccc(S(=O)(=O)N2CCC(C(=O)N3CCc4ccccc43)CC2)cc1C`, the cell number change is -11.2%.

With `NNC(=O)Cn1c(-c2ccccc2)cc(=O)n2ncnc12`, the cell number change came out at 24.3%. Also, the AC50 under setting [2] is 0.103 µM [falling, full curve, poor fit].

As to `COc1ccc(C(=O)NCC(=O)N/N=C(\C)Cc2ccccc2)cc1`, the cell number change was determined as 34%. The AC50 under setting [1] is 16.4 µM [rising, single point]. For the same compound, the AC50 under setting [2] was 18.4 µM [rising, single point].

On to `CN(C)c1ccc(/C=C2\CCCc3c2nc2ccccc2c3C(=O)O)cc1`, for which the cell number change was determined as 24.4%.

On to `COc1ccccc1CNC(=O)[C@H](C)NC(=O)C1CCN(C(=O)[C@@H](N)C(C)C)CC1`, for which the cell number change is -19.5%. Also, under setting [2], the AC50 was 0.82 µM [falling, full curve, poor fit].

As for `COc1cc(C(=O)N(C)CCOc2ccccc2)ccc1OCC(=O)Nc1cccc(C(F)(F)F)c1`, the cell number change was determined as 37.1%. Also, the AC50 under setting [1] was 4.11 µM [rising, full curve]. Under setting [2], the AC50 is 2.91 µM [rising, partial curve].

Consider `CC1(c2nnc(Cc3ccccc3)o2)CC(c2ccc([N+](=O)[O-])cc2)=NO1` (stereo not given), for which the cell number change was determined as 6.39%. The AC50 under setting [2] is 6.51 µM [rising, partial curve, poor fit].

With `O=C(Nc1ccc(Cl)cc1)N1CCCC1`, the cell number change came to 4.72%. In addition, the AC50 under setting [2] is 18.4 µM [rising, single point].

As to `CCN(CCCNC(=O)CNC(=O)c1nn(-c2ccc(OC)c(OC)c2)c(=O)c2ccccc12)c1ccccc1`, the cell number change is -26.2%.

With `NC(=O)CSC1=Nc2ccccc2C2=NC(CCC(=O)NCc3ccc(F)cc3)C(=O)N12` (stereo not given), the cell number change is 4.92%.

Regarding `Cc1cc(C)c(C2=NOC3C4CCC(C4)C23)c(C)c1` (stereo not given), the cell number change was 135%. Under setting [1], the AC50 was 29.1 µM [rising, single point]. In addition, the AC50 under setting [2] is 0.103 µM [falling, full curve, poor fit].

In the case of `Cc1cc(C(=O)NNS(=O)(=O)c2cc(C(=O)O)ccc2Cl)c(C)n1-c1ccccc1`, the cell number change is -4.66%. For the same compound, under setting [2], the concentration at half-maximal activity (AC50) is 4.11 µM [falling, single point].

Take `COc1cc(S(=O)(=O)NC2CCCCC2C)ccc1-n1cnnn1` (stereo not given): the cell number change turned out to be 13.8%. The AC50 under setting [2] was 1.84 µM [rising, full curve, poor fit].

With `COc1ccc(C(c2nnnn2Cc2ccccc2)N2CCN(c3ccccc3)CC2)cc1` (stereo not given), the cell number change amounted to 13%. In addition, under setting [2], the half-maximal activity concentration (AC50) is 1.3 µM [rising, full curve].

`O=C(NNC(=S)NC(=O)c1ccccc1[N+](=O)[O-])c1ccccc1O`: the cell number change worked out at 8.76%. Under setting [2], the AC50 was 0.0058 µM [falling, full curve, poor fit].

`CCN(c1ccc(F)cc1)S(=O)(=O)c1cccc2nsnc12`: the cell number change was -31.9%. Moreover, the AC50 under setting [1] was 25.9 µM [falling, single point]. Moreover, the AC50 under setting [2] is 11.6 µM [rising, partial curve].

With `O=C(CC(c1ccccc1)c1ccccc1)OCn1nnc2ccccc2c1=O`, the cell number change was 52%. Further, under setting [1], the AC50 was 0.517 µM [rising, partial curve].

Turning to `CN1C(=O)CC(n2c(CO)nc3ccccc32)C1=O` (stereo not given), the cell number change is -24.1%. Besides, under setting [2], the AC50 is 29.1 µM [falling, single point].

As for `CCCC(O)(c1ccc(OC)cc1)C(CN1CCOCC1)c1ccccc1` (stereo not given), the cell number change was -18.4%. The AC50 under setting [2] is 0.731 µM [falling, full curve].

In the case of `Cc1ccc(CSc2nnc(SCC(=O)N/N=C/c3c[nH]c4ccccc34)s2)cc1`, the cell number change is -45.7%. The AC50 under setting [1] was 5.17 µM [falling, full curve]. Further, under setting [2], the AC50 is 5.8 µM [falling, partial curve].

In the case of `O=C1CC(N(O)c2ccccc2)C(=O)N1c1cc(Cl)cc(Cl)c1` (stereo not given), the cell number change is 5.34%. Moreover, the concentration at half-maximal activity (AC50) under setting [2] was 18.4 µM [falling, single point].

On to `Oc1ccc(C2=NN(c3ccccc3)C(c3ccc(F)cc3)C2)cc1` (stereo not given), for which the cell number change is -27.8%. The AC50 under setting [2] was 0.58 µM [falling, single point].

Consider `Cc1ccccc1NS(=O)(=O)c1ccc(-c2ccc(=O)[nH]n2)o1`, for which the cell number change turned out to be 20.6%. Further, the AC50 under setting [2] is 6.51 µM [falling, single point].

`CCOC(=O)[C@@H]1[C@H]2COc3ccccc3[C@@H]2N2C(=O)N(c3ccc(Cl)cc3)C(=O)[C@@]12C`: the cell number change is -0.599%. Also, the AC50 under setting [2] is 0.58 µM [falling, single point].

On to `O=C(NCC(=O)N1CCCC1)c1ccc(Br)o1`, for which the cell number change came to 1.75%. For the same compound, the AC50 under setting [2] is 3.26 µM [rising, single point].

In the case of `Cc1cc(C(=O)OCC(=O)N(C)c2ccccc2)ccc1[N+](=O)[O-]`, the cell number change was found to be 20.1%. For the same compound, the half-maximal activity concentration (AC50) under setting [2] is 6.51 µM [rising, partial curve, poor fit].

In the case of `CCOC(=O)c1cccc(-n2c(C)cc(C=O)c2C)c1`, the AC50 under setting [1] was 6.51 µM [rising, single point] and the AC50 under setting [2] was 14.6 µM [rising, single point].

As for `CCOC(=O)c1ccc(NC(=O)Nc2cc(C)on2)cc1`, the cell number change was -23.7%. Further, the AC50 under setting [2] is 6.51 µM [falling, single point].

As to `O=C(Nc1cccc(F)c1)C1CCN(S(=O)(=O)c2cccc3nonc23)CC1`, the cell number change is -27%. Also, the AC50 under setting [1] is 0.13 µM [falling, full curve, poor fit].

Consider `O=c1ccc(=O)n(-c2ccccc2)[nH]1`, for which the AC50 under setting [2] was 29.1 µM [falling, single point].

In the case of `O=C(O)CCCNC(=O)CCCNC(=O)C(c1ccccc1)c1ccccc1`, the cell number change is -6.26%. For the same compound, the AC50 under setting [2] is 0.0058 µM [falling, full curve, poor fit].

`CCOc1cccc(-c2nn3c(-c4ccco4)nnc3s2)c1`: the concentration at half-maximal activity (AC50) is 6.51 µM [rising, single point] under setting [1] and 6.51 µM [rising, single point] under setting [2].

Regarding `COc1ccccc1NC(=O)c1cc(C)nc2ccccc12`, the cell number change is -50.6%.

As to `CCOc1ccc(NC(=O)CN(c2ccc(OC)cc2)S(C)(=O)=O)cc1`, the cell number change turned out to be 3.14%. Further, under setting [2], the AC50 was 2.91 µM [rising, partial curve, poor fit].

`CCOC(=O)C1C(C(=O)NN)C1C(=O)Nc1ccccc1` (stereo not given): the cell number change amounted to 84.9%. Moreover, the AC50 under setting [1] was 18.4 µM [rising, single point].

In the case of `CCOC(=O)c1ccc(Oc2c(C)oc3cc(OS(C)(=O)=O)ccc3c2=O)cc1`, the cell number change was -8.67%. For the same compound, under setting [1], the concentration at half-maximal activity (AC50) was 0.00461 µM [rising, full curve, poor fit]. Moreover, under setting [2], the AC50 was 23.1 µM [falling, single point].

Turning to `CCc1nccn1S(=O)(=O)c1ccc(OC)c(C)c1C`, the cell number change was -74.8%. The half-maximal activity concentration (AC50) under setting [1] is 18.4 µM [falling, single point].

In the case of `Cc1ccc(S(=O)(=O)N2CCOCC2)cc1NC(=O)COC(=O)c1cc(=O)c2ccccc2o1`, the cell number change came to 16.7%. In addition, the AC50 under setting [1] is 0.517 µM [rising, partial curve, poor fit].

As for `CCCCNC(=O)c1onc(CSc2cc(C)ccc2C)c1C(=O)O`, the cell number change is -19.1%. Under setting [2], the AC50 is 0.116 µM [falling, full curve, poor fit].

For `CCc1c(C)n2nc(C)cc2[nH]c1=O`, the cell number change was determined as 6.47%. For the same compound, the AC50 under setting [2] is 2.31 µM [falling, partial curve].

In the case of `Cc1ccc(S(=O)(=O)c2nc(-c3ccccc3)oc2N2CCCC2)cc1`, the cell number change was -16.4%. Under setting [2], the AC50 was 0.00517 µM [falling, full curve, poor fit].

As for `COc1ccc(Cl)cc1NS(=O)(=O)c1cccc(C(=O)NCC2(N(C)C)CCCCC2)c1`, under setting [2], the AC50 is 1.64 µM [falling, partial curve].

On to `COc1ccc(N(CC(=O)Nc2ccccc2C(N)=O)S(=O)(=O)c2ccc(C)c([N+](=O)[O-])c2)cc1`, for which the cell number change is -33.5%. For the same compound, the half-maximal activity concentration (AC50) under setting [1] was 8.2 µM [falling, single point].

As to `O=C(c1ccccc1F)N1CCN=C1SCc1cccnc1`, the cell number change amounted to 31.3%. The AC50 under setting [1] was 20.6 µM [rising, single point]. Moreover, the AC50 under setting [2] is 23.1 µM [rising, single point].

Turning to `O=C(COC(=O)c1ccc(S(=O)(=O)Nc2ccccc2)cc1)NCC1CCCO1` (stereo not given), the cell number change was -5.59%.

On to `CCC(C)NC(=O)c1cnn2c1NC(c1cccs1)CC2C(F)(F)F` (stereo not given), for which the cell number change came to 40%. Besides, the AC50 under setting [1] is 10.3 µM [rising, partial curve].

Consider `CCOC(=O)COc1ccccc1/C=C\[N+](=O)[O-]`, for which the cell number change is -41.2%. The AC50 under setting [1] is 8.2 µM [falling, partial curve]. Further, the half-maximal activity concentration (AC50) under setting [2] is 4.61 µM [falling, full curve].

In the case of `N#CCSc1nn(-c2ccc(F)cc2)c(=S)s1`, the cell number change was 43%. Further, the AC50 under setting [1] was 23.1 µM [rising, single point].

For `Cc1ccccc1COCCN1CCN(S(=O)(=O)c2ccccc2)CCC1=O`, under setting [2], the AC50 is 0.259 µM [rising, full curve, poor fit].

Consider `COc1ccc(CNc2ncnc3ccccc23)cc1`, for which the cell number change was -19%. Further, under setting [2], the AC50 was 29.1 µM [falling, single point].
